Assay results taken from article PMC9364023, “In vitro single molecule and bulk phase studies reveal the AP-1 transcription factor cFos binds to DNA without its partner cJun” (The Journal of Biological Chemistry, 2022).

The chains behind the UniProt entries cited, without tags or fusion partners. Residues count along the entry.
UniProt P05412, 252-308: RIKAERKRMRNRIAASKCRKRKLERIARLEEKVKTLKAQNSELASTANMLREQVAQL

Biological target: cJun-mNeonGreen + cJun-mCherry (UniProt P05412)
Test: FRET excitation spectra
Settings: 500 nM DNA, 590 nm peak with DNA suggests conformational effect upon binding; FRET: HSABC + 2.5 mM DTT, room temperature; recombinant protein; protein details: mNeonGreen or mCherry fusion, C-terminal His6

Q: Does “GTCAGTCAGTGACTCAATCGGTCA (double strand) [TRE]” bind?
A: binds

For at least one entry, the source does not settle the construct or the ends of the probe. At least one verdict rests on a figure or table, not on a statement of the authors.
